# In PubChem BioAssay AID2685 (National Center for Advancing Translational Sciences (NCATS), 2010):
# Some of the results follow. These are further read-outs of the screen, such as a control signal, another cell line or another target. No call is given for them. The list favours compounds with an active or inconclusive main result. Words in brackets tell the shape of the fitted curve; partial curves, single points and poor fits give uncertain potencies.
# Assay: qHTS Assay for Lipid Storage Modulators in Drosophila S3 Cells;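 as to cell number change: cells counted by Cell Tracker Red CMTPX staining in the red channel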
# Conditions: BODIPY lipid droplet fluorescence, 18-24 h; for cell number change: measured here: cell count max response, cells fed with added oleic acid
# Procedure, shortened: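 Laser-scanning cytometry quantifies lipid droplet accumulation (500–530 nm total intensity; droplet/cell object ratio) in oleic acid-fed (400 uM added) Drosophila S3 cells treated with a concentration series. 20 uM Triacsin C defined 100% inhibition.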
# [1] = measured here: cell number channel AC50, cells fed with added oleic acid
# [2] = measured here: lipid fluorescence (Fed channel) AC50, cells fed with added oleic acid
Compound,cell number change,AC50 [1],AC50 [2]
COc1cc(/C=C2/C(=O)N(C)C(=S)N2C)ccc1OCc1cccc(F)c1,83.9%,"23100 nM [rising, partial curve]",
Cc1ccccc1OCC(=O)OCC(=O)NCCc1ccccc1,-6.11%,,"73.1 nM [falling, full curve, poor fit]"
O=C(Nc1c(F)cc(F)cc1Br)c1cccnc1,8.33%,,
O=C1C(=O)N(CCN2CCOCC2)C(c2ccccc2)/C1=C(\O)c1ccc2c(c1)OCCO2 (stereo not drawn),-10.8%,,"29100 nM [rising, single point]"
COc1cccc(NC(=O)Nc2ccc(C(C)(C)C)cc2)c1,-16.9%,,"29100 nM [falling, single point]"
COc1cccc(-n2ccnc2SCC(=O)N2CCc3ccccc32)c1,,"651 nM [falling, single point]","20600 nM [rising, single point]"
Cn1c(CNC(=O)OC(C)(C)C)n[nH]c1=S,14.6%,,"32600 nM [rising, single point]"
Cc1ccc(CNC(=O)C(=O)NCC2CCCN2S(=O)(=O)c2cc(C)ccc2C)cc1 (stereo not drawn),11.4%,,
CCc1ccc(N2C(=O)C3CCCN3C2=S)cc1 (stereo not drawn),-45.4%,"4610 nM [falling, partial curve, poor fit]","7310 nM [falling, partial curve]"
Nc1ccc(N(c2ccccc2)c2ccc(N)cc2)cc1,-37.9%,"29100 nM [falling, single point]","29100 nM [falling, single point]"
Cc1ccc(C(=O)COC(=O)CCC(=O)Nc2cccc(Cl)c2)cc1[N+](=O)[O-],-20.9%,,"231 nM [falling, full curve, poor fit]"
CCN(CC)C(=O)C(C)N(C#N)c1nc(NC(C)C)nc(NC(C)C)n1 (stereo not drawn),173%,"16400 nM [rising, partial curve]","4610 nM [rising, single point]"
COCCCNC(=S)NC1CC2CCCC(C1)N2Cc1ccco1 (stereo not drawn),-74.5%,"3260 nM [falling, full curve]","2310 nM [falling, full curve]"
COc1ccc(CCNC(=O)CSc2nc(=O)n3cccc(C)c3n2)cc1OC,,"2310 nM [rising, single point]",
CC(=O)c1c(C)oc2ccc(O)c(CN3CCOCC3)c12,-15.1%,,"5.17 nM [rising, full curve, poor fit]"
CCN(CC)CCNC(=O)c1ccc(NC(=O)COc2ccccc2F)cc1,0.176%,"3660 nM [rising, single point]",
COC(=O)c1ccc[n+](CC(=O)Nc2ccc(OC(F)F)cc2)c1,2.6%,,
O=C(OCCCc1cc2ccccc2c(=O)o1)c1ccc(F)cc1,1.36%,,"11600 nM [rising, single point]"
CCOC(=O)N1CCN(C(=O)C2CC(c3ccc(F)cc3)=NO2)CC1 (stereo not drawn),15%,,
CC(c1ccc(F)cc1)n1c(Cn2ncc3ccccc3c2=O)n[nH]c1=S (stereo not drawn),19.2%,,"1160 nM [rising, full curve, poor fit]"

# Laid out differently: entries from further up.
Compound | cell number change | AC50 [1] | AC50 [2]
CC(=O)c1c(C)oc2ccc(O)c(CN3CCOCC3)c12 | -15.1% |  | 5.17 nM [rising, full curve, poor fit]
CCN(CC)CCNC(=O)c1ccc(NC(=O)COc2ccccc2F)cc1 | 0.176% | 3660 nM [rising, single point] | 
COC(=O)c1ccc[n+](CC(=O)Nc2ccc(OC(F)F)cc2)c1 | 2.6% |  | 

# Next part:

Compound,cell number change,AC50 [1],AC50 [2]
CC(=O)Nc1ccc(NC(=O)C2CCCN2C(=O)Nc2ccc(F)cc2)cc1 (stereo not drawn),-23.8%,,"206 nM [rising, single point]"
Cc1cc(OCC(=O)Nc2ccc(CN3CCOCC3)cc2)ccc1Cl,-1.73%,,"29100 nM [falling, single point]"
CCCS(=O)(=O)N1CCC(C(=O)N2CCN(Cc3ccccc3)CC2)CC1,11.1%,,
CCOP(=O)(OCC)C(C)(C)NC(=O)c1cc([N+](=O)[O-])cc([N+](=O)[O-])c1,5.81%,,
O=C(c1cc2ccccc2o1)N1CCN(S(=O)(=O)c2cccs2)CC1,21.8%,"2310 nM [rising, partial curve]","651 nM [rising, partial curve]"
Cc1ccc(OCCC(=O)OCC(=O)NNC(=O)c2ccccc2)cc1,-20.5%,,
CC(=O)c1c(C(C)=O)c(C)n(-c2cccc([N+](=O)[O-])c2)c1C,-3.93%,"1840 nM [falling, partial curve]","2310 nM [falling, partial curve]"
Cc1cc2oc(=O)cc(CN(C)Cc3ccccc3Cl)c2cc1C,5.13%,,"116 nM [rising, single point]"
Cc1ccc(S(=O)(=O)NCc2ccccc2)cc1C(=O)N(C)Cc1ccc(F)cc1,48%,,
Cc1ccc(-c2ccc(/C=N/N=C3/NC(=O)C(CC(=O)O)S3)o2)c([N+](=O)[O-])c1 (stereo not drawn),-29.3%,"130 nM [falling, full curve, poor fit]","731 nM [falling, full curve]"
Cc1ccc(S(=O)(=O)N2CCN(c3ncnc4ccccc34)CC2)cc1,-38.7%,"29100 nM [falling, single point]","411 nM [falling, partial curve]"
CCCCn1c(=NC(=O)c2ccco2)c(C(=O)OCC)cc2c(=O)n3ccccc3nc21,-14.1%,,"3260 nM [falling, full curve, poor fit]"
Cc1ccc(C(C)(C)C)cc1S(=O)(=O)N1CCC(C(=O)N2CCN(c3ccc(O)cc3)CC2)CC1,,,"411 nM [falling, full curve]"
COc1ccc(S(=O)(=O)N(C)CC(=O)NCCC2=CCCCC2)cc1,-27.5%,"184 nM [falling, full curve]","16400 nM [falling, partial curve]"
Cc1cccc(CN2CCC(C(=O)Nc3cccc(-c4cscn4)c3)CC2)n1,-4.53%,"6510 nM [rising, single point]",
CCSc1ncc(Cl)c(C(=O)Nc2ccc(S(=O)(=O)Nc3onc(C)c3C)cc2)n1,,,"116 nM [falling, full curve, poor fit]"
COc1cc(CNCCc2c[nH]c3ccccc23)ccc1OCc1ccc(F)cc1,-93.7%,"29100 nM [falling, single point]","23100 nM [falling, single point]"
COc1ccccc1/C=C/C=C(\C#N)C(=O)NC(C)c1ccccc1 (stereo not drawn),-1.59%,,"3660 nM [rising, single point]"
CN(Cc1cccs1)C(=O)c1cc(S(=O)(=O)N2CCOCC2)ccc1F,-1.63%,,
COc1ccc(OCCN2CCN(S(=O)(=O)c3ccccc3C(F)(F)F)CC2)cc1,-15.2%,,"8200 nM [falling, full curve, poor fit]"

Compound,cell number change,AC50 [1],AC50 [2]
Cc1c(C(=O)c2no[n+]([O-])c2C(=O)c2cnn(C)c2C)cnn1C,-90.8%,"29100 nM [falling, partial curve]","8200 nM [falling, partial curve, poor fit]"
CCc1cccc2c(C(=O)COC(=O)c3cnc(C)cn3)c[nH]c12,-2.34%,,"1460 nM [rising, partial curve]"
Cc1csc(N(C(=O)c2ccccc2F)c2ccccc2)n1,-7.68%,,
Cc1ccccc1NC(=S)N1CCCC1,-18.9%,,"4.61 nM [falling, full curve, poor fit]"
CCOC(=O)CNC(=O)CN1C(=O)CCSc2ccccc21,-13.4%,,"231 nM [falling, full curve, poor fit]"
O=C(COc1cccc2ccccc12)N/N=C/c1ccc(Sc2nc3ccccc3s2)o1,,,"731 nM [rising, full curve]"
CC1CN(C2=Nc3cccc4cccc2c34)CC(C)O1 (stereo not drawn),-10.5%,"5.8 nM [rising, full curve, poor fit]","4.61 nM [rising, full curve, poor fit]"
CN(CC1CCCO1)S(=O)(=O)c1ccc(C(=O)Nc2ccc(S(N)(=O)=O)cc2)cc1 (stereo not drawn),-30.5%,"16400 nM [falling, single point]","20600 nM [falling, partial curve]"
Nc1c(Cl)ncnc1N1CCN(c2ncnc(Cl)c2N)CC1,9.84%,,"517 nM [rising, single point]"
CC(=O)NC(CC(=O)OCC(=O)NCCc1ccccc1)c1ccccc1 (stereo not drawn),,,"5800 nM [rising, partial curve, poor fit]"
Cc1onc(-c2ccccc2)c1C(=O)OCc1nnc(-c2ccccc2)o1,-16.8%,,
Cc1cc(C)c2c(=O)[nH]n(C3CCOC(C)(C)C3)c2n1 (stereo not drawn),7.19%,,"29100 nM [rising, single point]"
COc1cc(OC)cc(-c2c(-c3ccc(F)cc3)c3cc(-c4cnc(OC)nc4)ccc3n2C)c1,4.41%,,
Cc1c(NC(=O)COC(=O)C2CC3C=CC2C3)c(=O)n(-c2ccccc2)n1C (stereo not drawn),-1.29%,,"14600 nM [falling, single point]"
O=C1C=CC(=O)N1CCCCCCN1C(=O)C=CC1=O,-67.3%,"2060 nM [falling, full curve]","461 nM [falling, full curve]"
Cc1sc(NC(=O)CN2C(=O)NC3(CCCC3)C2=O)nc1-c1ccc(F)cc1,,"2910 nM [rising, partial curve, poor fit]","2910 nM [rising, partial curve, poor fit]"
O=C(Nc1ccccc1)c1nc[nH]c1C(=O)N1CCc2ccccc2C1,7.76%,,"1160 nM [rising, single point]"
COc1ccc(S(=O)(=O)N2CCCCCC2)cc1C(=O)OCC(=O)NC(C)(C)C,,"820 nM [rising, full curve, poor fit]","651 nM [rising, partial curve, poor fit]"
